These are yes or no findings as the source states them, for the method shown. Some binding calls cover weakened binding; strength is not graded here.
Tests used:
[1] = molecular target: T1, BMP2 (bone morphogenetic protein 2), recombinant (UniProt P12643); assay: co-IP; beads conjugated with anti-BMPER or anti-BMP2 antibody (or goat or rabbit IgG controls) incubated with combinations of recombinant BMPER and BMP2; beads isolated, Western blot; both purified
T1 sequence: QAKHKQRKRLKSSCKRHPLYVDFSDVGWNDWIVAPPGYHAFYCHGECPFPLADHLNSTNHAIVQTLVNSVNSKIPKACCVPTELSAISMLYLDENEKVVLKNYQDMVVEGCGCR

Sequences of proteins named here, by UniProt entry; tags and fusion partners are left off. Residues count along the entry.
UniProt Q8CJ69, residues 40-685: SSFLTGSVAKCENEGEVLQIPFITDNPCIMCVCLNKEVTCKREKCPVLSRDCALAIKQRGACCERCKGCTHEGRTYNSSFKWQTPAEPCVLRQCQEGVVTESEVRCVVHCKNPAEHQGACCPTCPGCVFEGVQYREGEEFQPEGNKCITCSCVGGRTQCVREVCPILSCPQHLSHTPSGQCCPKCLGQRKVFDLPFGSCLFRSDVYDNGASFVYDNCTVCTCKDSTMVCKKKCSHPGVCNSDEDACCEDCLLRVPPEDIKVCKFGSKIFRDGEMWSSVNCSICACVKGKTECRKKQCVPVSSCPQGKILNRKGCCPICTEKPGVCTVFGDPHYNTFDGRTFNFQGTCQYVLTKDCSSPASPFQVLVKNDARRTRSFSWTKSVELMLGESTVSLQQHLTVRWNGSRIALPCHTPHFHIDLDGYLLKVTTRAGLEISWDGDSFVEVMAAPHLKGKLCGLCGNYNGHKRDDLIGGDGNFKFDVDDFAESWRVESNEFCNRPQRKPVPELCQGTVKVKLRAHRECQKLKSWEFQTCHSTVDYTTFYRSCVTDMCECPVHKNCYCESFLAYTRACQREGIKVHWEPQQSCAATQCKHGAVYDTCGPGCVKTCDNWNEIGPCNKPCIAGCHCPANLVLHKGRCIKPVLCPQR

[2] = molecular target: BMPER (BMP-binding endothelial regulator), recombinant (UniProt Q8CJ69); assay: as above

With “BMPER (BMP-binding endothelial regulator), recombinant (from UniProt Q8CJ69 40-685)” the binding [1] was “binds”.

B1: BMP2 (bone morphogenetic protein 2), recombinant (ligand, UniProt P12643 283-396)
chain: QAKHKQRKRLKSSCKRHPLYVDFSDVGWNDWIVAPPGYHAFYCHGECPFPLADHLNSTNHAIVQTLVNSVNSKIPKACCVPTELSAISMLYLDENEKVVLKNYQDMVVEGCGCR
B1 was tested, and the binding [2] was “binds”.

Reference: paper PMC4587915
